Results are given in words; binding and its absence hold for the method and conditions named. Binding seen in cells or lysates may run through a third protein. Some entries that bind do so weakly or less than the wild type. Where a sequence is shown, tags or fusion partners need not be part of it.

Amino acid sequences for entries named in this document (tags omitted).
UniProt Q182W3: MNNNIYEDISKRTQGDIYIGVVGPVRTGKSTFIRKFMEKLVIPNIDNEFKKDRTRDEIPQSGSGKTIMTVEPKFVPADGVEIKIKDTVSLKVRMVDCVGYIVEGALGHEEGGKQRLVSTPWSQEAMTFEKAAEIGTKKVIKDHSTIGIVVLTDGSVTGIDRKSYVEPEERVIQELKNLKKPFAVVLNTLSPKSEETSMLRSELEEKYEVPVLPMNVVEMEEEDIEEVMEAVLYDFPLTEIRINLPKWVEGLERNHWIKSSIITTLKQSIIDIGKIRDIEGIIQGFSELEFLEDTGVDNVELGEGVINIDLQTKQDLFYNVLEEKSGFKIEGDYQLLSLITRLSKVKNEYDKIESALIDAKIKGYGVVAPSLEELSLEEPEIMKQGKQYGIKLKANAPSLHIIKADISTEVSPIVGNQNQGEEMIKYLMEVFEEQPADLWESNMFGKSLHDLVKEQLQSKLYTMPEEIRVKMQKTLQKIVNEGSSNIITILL

The record followed here is paper PMC5607322.

The target in the test is T1, B. subtilis SpoVM-CPD-His6 (Bacillus subtilis) (UniProt P37817).
T1 sequence: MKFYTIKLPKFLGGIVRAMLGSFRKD
The test is described as follows: pull-down.

Take “HA-tagged C. difficile SpoIVA (from UniProt Q182W3 1-491)”: the binding result was “binds”.

B1: HA-tagged B. subtilis SpoIVA (protein, UniProt P35149 1-492)
chain: MEKVDIFKDIAERTGGDIYLGVVGAVRTGKSTFIKKFMELVVLPNISNEADRARAQDELPQSAAGKTIMTTEPKFVPNQAMSVHVSDGLDVNIRLVDCVGYTVPGAKGYEDENGPRMINTPWYEEPIPFHEAAEIGTRKVIQEHSTIGVVITTDGTIGDIARSDYIEAEERVIEELKEVGKPFIMVINSVRPYHPETEAMRQDLSEKYDIPVLAMSVESMRESDVLSVLREALYEFPVLEVNVNLPSWVMVLKENHWLRESYQESVKETVKDIKRLRDVDRVVGQFSEFEFIESAGLAGIELGQGVAEIDLYAPDHLYDQILKEVVGVEIRGRDHLLELMQDFAHAKTEYDQVSDALKMVKQTGYGIAAPALADMSLDEPEIIRQGSRFGVRLKAVAPSIHMIKVDVESEFAPIIGTEKQSEELVRYLMQDFEDDPLSIWNSDIFGRSLSSIVREGIQAKLSLMPENARYKLKETLERIINEGSGGLIAIIL
As to B1, the binding result is on record as “binds”.
